IC50 and Ki data for three compounds are collected here from ChEMBL document CHEMBL1909046, “DrugMatrix in vitro pharmacology data”.

Chains of the proteins cited; added tags and fusions are not shown.
UniProt P15207, whole entry S389L: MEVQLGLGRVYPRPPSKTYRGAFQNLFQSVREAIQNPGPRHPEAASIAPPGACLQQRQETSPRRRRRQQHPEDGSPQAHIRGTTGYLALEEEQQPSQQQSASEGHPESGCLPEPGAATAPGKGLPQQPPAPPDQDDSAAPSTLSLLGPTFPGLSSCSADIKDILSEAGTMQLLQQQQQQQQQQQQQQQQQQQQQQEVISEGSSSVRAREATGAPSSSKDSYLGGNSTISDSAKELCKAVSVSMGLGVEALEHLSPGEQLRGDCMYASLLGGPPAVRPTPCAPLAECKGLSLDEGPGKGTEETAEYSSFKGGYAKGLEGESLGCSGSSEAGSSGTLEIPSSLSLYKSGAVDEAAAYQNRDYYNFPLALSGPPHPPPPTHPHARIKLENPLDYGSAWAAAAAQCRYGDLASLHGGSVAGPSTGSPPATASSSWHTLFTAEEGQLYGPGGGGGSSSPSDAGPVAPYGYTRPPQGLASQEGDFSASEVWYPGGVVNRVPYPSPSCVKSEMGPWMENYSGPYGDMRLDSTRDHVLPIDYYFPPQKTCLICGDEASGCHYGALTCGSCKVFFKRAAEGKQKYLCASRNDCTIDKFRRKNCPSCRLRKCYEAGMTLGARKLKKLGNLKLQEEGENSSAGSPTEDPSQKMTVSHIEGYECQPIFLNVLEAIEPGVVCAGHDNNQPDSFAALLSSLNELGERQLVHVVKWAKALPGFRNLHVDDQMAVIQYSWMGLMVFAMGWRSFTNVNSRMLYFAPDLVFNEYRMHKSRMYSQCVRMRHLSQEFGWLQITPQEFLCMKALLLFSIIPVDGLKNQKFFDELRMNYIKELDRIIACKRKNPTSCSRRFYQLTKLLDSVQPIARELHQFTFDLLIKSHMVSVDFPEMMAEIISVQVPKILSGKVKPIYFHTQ
UniProt P11712, whole entry: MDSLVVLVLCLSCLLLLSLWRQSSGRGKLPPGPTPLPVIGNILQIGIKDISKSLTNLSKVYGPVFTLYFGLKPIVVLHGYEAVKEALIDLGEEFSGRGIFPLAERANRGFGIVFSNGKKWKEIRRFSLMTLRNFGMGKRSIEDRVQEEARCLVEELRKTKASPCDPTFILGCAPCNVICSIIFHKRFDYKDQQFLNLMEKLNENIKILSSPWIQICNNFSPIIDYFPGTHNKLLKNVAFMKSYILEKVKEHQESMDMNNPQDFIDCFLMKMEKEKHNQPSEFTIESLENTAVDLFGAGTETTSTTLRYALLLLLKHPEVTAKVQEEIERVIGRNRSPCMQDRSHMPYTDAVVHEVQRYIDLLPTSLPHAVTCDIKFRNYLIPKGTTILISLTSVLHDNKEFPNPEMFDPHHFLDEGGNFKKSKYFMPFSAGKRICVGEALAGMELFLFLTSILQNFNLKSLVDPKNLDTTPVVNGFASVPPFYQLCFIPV
UniProt P33261, whole entry: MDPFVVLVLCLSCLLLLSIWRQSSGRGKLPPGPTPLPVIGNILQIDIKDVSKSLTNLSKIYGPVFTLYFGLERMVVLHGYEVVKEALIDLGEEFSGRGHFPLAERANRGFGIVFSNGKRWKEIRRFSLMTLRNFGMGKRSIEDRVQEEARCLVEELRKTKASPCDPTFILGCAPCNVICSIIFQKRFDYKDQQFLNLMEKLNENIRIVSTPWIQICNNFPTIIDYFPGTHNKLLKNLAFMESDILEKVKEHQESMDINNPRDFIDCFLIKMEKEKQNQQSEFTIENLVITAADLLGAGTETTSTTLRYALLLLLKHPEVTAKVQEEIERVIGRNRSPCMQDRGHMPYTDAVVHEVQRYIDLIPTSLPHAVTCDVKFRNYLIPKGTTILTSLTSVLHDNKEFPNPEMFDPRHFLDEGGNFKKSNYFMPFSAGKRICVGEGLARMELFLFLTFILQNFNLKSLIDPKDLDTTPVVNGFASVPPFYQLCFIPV
UniProt P08913, whole entry: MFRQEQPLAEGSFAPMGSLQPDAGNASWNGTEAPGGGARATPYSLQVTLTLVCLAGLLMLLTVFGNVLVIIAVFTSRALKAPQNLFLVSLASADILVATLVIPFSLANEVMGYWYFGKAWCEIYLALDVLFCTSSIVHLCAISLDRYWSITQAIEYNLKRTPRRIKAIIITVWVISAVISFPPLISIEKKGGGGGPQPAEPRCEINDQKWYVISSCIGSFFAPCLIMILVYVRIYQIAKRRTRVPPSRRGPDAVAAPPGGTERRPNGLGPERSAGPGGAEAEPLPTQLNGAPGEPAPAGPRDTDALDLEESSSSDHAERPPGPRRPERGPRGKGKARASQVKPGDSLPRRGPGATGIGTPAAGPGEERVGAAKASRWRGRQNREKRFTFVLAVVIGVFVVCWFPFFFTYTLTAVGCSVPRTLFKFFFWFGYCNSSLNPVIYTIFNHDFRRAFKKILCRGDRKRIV

Among the targets are Androgen receptor (Rattus norvegicus, UniProt P15207); Cytochrome P450 2C9 (Homo sapiens, UniProt P11712); Cytochrome P450 2C19 (Homo sapiens, UniProt P33261).
For assay [1], the target named is Alpha-2A adrenergic receptor (Homo sapiens, UniProt P08913). In kind it is cell membranes, Membrane. The following applies: sf9.
In a further assay the target is T1, Glucocorticoid receptor (Homo sapiens, UniProt P04150).
T1 sequence (P04150 whole entry): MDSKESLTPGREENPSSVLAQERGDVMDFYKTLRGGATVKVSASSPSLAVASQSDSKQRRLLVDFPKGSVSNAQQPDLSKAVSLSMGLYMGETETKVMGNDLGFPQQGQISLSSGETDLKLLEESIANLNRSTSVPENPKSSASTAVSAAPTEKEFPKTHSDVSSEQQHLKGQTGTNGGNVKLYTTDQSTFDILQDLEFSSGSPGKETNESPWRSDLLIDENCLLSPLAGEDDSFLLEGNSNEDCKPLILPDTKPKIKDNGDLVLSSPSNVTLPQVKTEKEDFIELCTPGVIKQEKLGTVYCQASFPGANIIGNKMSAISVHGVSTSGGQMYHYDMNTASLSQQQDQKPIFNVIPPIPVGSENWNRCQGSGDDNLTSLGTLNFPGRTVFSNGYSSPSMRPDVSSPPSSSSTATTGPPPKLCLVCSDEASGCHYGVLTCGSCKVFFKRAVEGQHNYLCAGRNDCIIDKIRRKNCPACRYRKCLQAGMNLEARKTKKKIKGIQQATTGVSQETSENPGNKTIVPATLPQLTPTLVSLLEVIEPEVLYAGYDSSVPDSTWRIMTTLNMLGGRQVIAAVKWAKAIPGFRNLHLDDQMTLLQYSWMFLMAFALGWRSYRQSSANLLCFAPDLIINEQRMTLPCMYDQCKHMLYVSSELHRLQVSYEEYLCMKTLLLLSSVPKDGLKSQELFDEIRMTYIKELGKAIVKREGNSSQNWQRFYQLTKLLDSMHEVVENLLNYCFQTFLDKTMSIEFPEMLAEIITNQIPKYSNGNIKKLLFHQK
In words: biochemical.
Note: in other assays of this panel Not Active means under 50% inhibition at 10 µM.

Turning to `NC(=O)C1CCN(CCCN2c3ccccc3Sc3ccc(Cl)cc32)CC1` [PIPAMAZINE], the 50% inhibitory concentration (IC50) result at Androgen receptor is recorded as “Not Active”.

For the compound `Clc1ccc(CO/N=C(\Cn2ccnc2)c2ccc(Cl)cc2Cl)c(Cl)c1` [OXICONAZOLE], the results for the 50% inhibitory concentration (IC50) on Cytochrome P450 2C9 and on Cytochrome P450 2C19 were 3000 nM and 40 nM, respectively.

As for `C[C@H]1C[C@H]2[C@@H]3CCC4=CC(=O)C=C[C@]4(C)[C@@]3(F)[C@@H](O)C[C@]2(C)[C@@]1(O)C(=O)COP(=O)(O)O` [BETAMETHASONE PHOSPHORIC ACID], the IC50 entry in assay [1] is listed as “Not Active”. At Glucocorticoid receptor, this compound returned an IC50 of 8.22 nM and a Ki of 3.73 nM.
